Measured values as given in paper PMC6969142.
These are yes or no findings as the source states them, for the method shown. In cells and extracts the contact can be indirect. Here binding means that the protein was enriched with, or labelled near, the bait; the list need not be complete. Where a sequence is shown, tags or fusion partners need not be part of it.

Amino acid sequences for entries named in this document (tags omitted).
UniProt Q9VHP0: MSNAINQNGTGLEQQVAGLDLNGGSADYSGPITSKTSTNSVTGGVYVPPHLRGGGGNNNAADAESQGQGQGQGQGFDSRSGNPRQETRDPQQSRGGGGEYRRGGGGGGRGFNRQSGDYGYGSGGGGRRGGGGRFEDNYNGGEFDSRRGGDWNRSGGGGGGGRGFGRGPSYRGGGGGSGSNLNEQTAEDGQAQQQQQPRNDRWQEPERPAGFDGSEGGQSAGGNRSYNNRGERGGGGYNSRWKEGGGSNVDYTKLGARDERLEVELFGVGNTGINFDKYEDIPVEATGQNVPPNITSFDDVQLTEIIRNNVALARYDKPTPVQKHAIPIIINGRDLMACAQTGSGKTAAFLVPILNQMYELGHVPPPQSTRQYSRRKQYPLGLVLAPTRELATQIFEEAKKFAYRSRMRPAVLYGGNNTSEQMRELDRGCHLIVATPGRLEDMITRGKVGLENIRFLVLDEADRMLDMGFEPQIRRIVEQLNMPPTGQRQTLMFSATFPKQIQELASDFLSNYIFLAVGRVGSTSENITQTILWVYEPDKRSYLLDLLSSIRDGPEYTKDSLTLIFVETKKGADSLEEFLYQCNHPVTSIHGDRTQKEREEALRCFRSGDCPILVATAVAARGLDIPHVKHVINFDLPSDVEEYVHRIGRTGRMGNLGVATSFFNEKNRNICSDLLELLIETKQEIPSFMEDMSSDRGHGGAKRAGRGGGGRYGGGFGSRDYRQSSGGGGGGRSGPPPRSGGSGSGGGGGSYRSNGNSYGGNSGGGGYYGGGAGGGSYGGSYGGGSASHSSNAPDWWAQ
UniProt P15007: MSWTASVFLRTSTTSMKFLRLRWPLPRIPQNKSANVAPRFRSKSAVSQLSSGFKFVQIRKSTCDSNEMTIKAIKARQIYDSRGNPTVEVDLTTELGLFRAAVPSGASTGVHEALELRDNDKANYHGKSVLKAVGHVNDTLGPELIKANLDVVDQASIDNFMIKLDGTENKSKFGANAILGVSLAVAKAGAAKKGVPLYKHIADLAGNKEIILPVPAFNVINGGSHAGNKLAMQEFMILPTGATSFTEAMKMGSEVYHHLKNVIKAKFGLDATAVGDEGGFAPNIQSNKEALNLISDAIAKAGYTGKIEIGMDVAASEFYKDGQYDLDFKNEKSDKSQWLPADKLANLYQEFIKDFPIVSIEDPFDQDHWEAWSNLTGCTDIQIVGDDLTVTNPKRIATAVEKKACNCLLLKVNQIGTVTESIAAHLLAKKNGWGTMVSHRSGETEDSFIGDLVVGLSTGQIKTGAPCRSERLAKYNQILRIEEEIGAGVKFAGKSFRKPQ
UniProt Q9VWI1: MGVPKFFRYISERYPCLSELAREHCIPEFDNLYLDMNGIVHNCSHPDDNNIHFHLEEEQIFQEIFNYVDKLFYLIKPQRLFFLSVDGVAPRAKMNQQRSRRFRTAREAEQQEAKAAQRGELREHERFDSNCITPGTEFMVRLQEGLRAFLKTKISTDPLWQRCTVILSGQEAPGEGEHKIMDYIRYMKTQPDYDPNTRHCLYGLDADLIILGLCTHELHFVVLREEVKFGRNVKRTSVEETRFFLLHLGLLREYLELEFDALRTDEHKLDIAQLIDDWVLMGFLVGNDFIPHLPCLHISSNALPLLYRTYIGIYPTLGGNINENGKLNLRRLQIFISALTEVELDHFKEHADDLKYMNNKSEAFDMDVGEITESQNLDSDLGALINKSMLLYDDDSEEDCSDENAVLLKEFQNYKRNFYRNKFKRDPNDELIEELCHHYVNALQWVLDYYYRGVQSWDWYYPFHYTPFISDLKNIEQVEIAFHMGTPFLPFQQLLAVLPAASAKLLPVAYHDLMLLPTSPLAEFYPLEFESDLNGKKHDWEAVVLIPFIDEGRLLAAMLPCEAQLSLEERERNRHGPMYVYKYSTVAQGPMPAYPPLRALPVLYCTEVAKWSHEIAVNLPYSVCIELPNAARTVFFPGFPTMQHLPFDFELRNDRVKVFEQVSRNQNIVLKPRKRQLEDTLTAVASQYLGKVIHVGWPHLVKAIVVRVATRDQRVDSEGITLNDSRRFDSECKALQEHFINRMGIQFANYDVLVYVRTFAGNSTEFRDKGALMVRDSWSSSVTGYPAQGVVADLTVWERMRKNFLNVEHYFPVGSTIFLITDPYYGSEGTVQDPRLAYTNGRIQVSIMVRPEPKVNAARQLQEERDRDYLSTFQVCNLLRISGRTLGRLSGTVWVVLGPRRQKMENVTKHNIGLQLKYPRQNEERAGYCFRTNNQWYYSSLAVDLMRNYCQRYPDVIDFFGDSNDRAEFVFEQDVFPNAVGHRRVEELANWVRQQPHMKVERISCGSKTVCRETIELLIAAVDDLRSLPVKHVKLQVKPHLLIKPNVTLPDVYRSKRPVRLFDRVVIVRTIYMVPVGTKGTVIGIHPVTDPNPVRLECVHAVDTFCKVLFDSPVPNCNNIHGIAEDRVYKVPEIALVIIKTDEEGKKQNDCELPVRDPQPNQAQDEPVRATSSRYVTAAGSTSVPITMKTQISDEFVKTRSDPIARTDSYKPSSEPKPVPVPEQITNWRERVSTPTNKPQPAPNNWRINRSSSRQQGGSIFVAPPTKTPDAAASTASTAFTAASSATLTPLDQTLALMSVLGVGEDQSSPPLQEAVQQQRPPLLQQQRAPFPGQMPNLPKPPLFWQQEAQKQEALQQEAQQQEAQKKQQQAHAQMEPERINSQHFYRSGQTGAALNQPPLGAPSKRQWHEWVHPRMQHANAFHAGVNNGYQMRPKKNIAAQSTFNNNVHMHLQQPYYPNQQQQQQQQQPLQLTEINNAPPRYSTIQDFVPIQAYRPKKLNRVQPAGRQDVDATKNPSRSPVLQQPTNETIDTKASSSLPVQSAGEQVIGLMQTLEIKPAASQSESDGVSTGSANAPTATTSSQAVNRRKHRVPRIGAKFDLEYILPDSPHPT
UniProt O62619: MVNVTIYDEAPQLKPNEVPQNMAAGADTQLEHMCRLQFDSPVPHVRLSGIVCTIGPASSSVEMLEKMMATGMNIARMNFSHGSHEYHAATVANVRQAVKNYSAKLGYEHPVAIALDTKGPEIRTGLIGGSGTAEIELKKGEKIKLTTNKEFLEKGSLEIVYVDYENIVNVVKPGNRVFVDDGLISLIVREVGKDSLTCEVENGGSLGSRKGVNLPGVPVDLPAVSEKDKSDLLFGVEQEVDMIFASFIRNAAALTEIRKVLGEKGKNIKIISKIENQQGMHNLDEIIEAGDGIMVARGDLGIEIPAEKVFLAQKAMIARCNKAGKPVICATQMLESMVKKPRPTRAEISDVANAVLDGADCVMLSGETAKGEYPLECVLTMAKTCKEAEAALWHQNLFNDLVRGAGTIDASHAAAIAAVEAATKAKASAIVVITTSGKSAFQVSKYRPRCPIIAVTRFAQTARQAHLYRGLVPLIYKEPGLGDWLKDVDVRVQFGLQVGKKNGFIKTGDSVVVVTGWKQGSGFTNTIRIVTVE
UniProt P25823: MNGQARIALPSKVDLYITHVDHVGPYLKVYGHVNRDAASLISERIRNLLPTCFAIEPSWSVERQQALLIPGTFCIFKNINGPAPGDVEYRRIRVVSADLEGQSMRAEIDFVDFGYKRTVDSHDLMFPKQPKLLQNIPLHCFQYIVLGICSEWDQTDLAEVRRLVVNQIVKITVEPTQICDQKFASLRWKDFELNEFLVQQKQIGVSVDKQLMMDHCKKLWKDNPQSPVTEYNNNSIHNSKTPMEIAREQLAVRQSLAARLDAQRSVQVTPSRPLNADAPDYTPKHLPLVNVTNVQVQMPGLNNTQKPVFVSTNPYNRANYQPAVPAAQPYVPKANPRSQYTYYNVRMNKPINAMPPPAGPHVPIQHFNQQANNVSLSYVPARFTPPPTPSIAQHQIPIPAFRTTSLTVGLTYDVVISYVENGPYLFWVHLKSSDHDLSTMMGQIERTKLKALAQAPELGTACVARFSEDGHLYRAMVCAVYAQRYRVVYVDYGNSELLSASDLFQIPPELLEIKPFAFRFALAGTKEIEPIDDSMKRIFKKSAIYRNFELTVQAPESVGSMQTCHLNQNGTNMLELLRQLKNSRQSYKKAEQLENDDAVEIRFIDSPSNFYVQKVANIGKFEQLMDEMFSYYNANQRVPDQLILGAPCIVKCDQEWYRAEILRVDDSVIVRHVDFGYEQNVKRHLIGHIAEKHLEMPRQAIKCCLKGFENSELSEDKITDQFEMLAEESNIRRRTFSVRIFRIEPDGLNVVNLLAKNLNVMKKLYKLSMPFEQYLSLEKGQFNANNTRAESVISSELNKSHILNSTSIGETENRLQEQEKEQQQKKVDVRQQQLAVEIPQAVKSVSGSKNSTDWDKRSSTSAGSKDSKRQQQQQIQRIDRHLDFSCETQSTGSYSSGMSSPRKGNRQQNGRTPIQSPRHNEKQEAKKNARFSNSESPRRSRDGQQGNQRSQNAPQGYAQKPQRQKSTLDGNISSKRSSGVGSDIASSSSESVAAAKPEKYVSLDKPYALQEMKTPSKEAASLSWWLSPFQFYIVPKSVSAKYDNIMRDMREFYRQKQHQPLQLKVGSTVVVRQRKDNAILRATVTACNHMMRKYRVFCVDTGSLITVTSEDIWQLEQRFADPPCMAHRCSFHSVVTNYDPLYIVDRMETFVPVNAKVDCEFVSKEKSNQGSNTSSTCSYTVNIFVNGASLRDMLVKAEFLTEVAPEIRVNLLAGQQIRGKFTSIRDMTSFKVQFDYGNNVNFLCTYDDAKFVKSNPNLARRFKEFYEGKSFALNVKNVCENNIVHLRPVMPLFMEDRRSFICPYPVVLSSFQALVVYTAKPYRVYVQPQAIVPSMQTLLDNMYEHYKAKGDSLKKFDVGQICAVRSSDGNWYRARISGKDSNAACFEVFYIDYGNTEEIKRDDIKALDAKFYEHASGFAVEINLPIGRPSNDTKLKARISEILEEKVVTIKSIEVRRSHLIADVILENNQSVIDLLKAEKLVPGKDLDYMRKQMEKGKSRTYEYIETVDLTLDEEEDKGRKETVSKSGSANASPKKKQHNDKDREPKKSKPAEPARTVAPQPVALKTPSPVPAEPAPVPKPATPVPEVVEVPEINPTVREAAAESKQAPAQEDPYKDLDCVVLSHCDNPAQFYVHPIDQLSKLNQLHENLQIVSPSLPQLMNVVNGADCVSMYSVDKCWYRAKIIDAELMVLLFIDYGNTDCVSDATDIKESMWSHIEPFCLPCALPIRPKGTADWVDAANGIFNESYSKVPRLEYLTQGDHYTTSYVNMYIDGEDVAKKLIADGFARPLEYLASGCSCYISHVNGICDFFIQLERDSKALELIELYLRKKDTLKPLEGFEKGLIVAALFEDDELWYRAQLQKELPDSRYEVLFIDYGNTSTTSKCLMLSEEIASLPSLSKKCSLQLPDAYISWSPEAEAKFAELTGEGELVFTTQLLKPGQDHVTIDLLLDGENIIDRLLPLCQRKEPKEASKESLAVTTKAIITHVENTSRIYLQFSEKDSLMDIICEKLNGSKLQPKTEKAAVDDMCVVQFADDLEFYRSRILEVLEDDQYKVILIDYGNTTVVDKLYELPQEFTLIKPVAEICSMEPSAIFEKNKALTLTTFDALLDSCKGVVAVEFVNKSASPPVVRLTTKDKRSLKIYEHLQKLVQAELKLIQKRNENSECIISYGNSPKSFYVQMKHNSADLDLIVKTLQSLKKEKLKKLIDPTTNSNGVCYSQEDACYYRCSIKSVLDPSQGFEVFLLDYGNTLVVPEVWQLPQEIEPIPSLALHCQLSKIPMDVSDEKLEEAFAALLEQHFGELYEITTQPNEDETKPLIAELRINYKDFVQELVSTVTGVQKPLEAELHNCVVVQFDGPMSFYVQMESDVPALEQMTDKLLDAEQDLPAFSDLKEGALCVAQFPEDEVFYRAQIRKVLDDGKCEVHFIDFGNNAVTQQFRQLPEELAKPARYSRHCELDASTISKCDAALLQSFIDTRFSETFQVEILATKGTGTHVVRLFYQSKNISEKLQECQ
UniProt Q24560: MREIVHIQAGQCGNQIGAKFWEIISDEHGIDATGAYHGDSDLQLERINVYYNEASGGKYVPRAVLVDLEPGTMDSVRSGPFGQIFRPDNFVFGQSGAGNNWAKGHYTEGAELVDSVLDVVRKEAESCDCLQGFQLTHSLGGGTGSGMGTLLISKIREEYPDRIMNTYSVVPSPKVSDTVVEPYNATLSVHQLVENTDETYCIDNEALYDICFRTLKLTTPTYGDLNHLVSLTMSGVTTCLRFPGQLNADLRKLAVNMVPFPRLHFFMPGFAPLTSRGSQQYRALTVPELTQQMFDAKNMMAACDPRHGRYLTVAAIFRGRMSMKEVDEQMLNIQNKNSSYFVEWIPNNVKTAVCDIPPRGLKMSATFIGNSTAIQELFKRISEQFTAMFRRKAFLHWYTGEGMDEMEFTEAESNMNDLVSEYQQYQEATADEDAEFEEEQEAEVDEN

T1: Me31B-GFP fusion protein (Drosophila melanogaster) (UniProt P23128)
T1 sequence: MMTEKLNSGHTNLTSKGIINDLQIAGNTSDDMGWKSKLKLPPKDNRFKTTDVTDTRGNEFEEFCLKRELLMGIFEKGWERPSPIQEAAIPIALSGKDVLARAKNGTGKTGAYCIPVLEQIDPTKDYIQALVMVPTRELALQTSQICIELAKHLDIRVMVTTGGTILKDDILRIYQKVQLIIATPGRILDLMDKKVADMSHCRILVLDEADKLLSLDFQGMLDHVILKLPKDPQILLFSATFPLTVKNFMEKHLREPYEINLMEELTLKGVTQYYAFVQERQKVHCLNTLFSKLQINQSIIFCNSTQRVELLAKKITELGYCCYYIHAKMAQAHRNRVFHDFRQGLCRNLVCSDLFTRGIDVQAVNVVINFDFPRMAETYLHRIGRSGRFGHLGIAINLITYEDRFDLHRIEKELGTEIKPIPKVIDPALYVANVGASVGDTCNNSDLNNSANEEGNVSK


target: T1, Me31B-GFP fusion protein (Drosophila melanogaster); experiment: affinity purification with mass spectrometry; 0–1 hour Me31B-GFP embryos crosslinked in vivo with 0.2% formaldehyde; lysate on anti-GFP magnetic beads, 5 stringent washes; complexes resolved on a 3–15% step gel and the band excised; four biological replicates; GFP flies as control

binding	Molecule
binds	Belle (Bel) (from UniProt Q9VHP0 1-798)
binds	Dynein heavy chain (Dhc 64 C) (from UniProt P37276 1-4639)
binds	Enolase (Eno) (from UniProt P15007 1-500) (enzyme)
binds	Kinesin heavy chain (Khc) (from UniProt P17210 1-975)
binds	Pacman (Pcm) (from UniProt Q9VWI1 1-1612)
binds	Pyruvate kinase (PyK) (from UniProt O62619 1-533) (enzyme)
binds weakly	Tudor (Tud) (from UniProt P25823 1-2515)
binds	eIF4A (eIF-4a) (from UniProt Q02748 1-403)
binds	β-Tubulin (BetaTub56D) (from UniProt Q24560 1-447)
binds	eIF4E (eIF-4E) (protein, UniProt P48598 1-259) MQSDFHRMKNFANPKSMFKTSAPSTEQGRPEPPTSAAAPAEAKDVKPKEDPQETGEPAGNTATTTAPAGDDAVRTEHLYKHPLMNVWTLWYLENDRSKSWEDMQNEITSFDTVEDFWSLYNHIKPPSEIKLGSDYSLFKKNIRPMWEDAANKQGGRWVITLNKSSKTDLDNLWLDVLLCLIGEAFDHSDQICGAVINIRGKSNKISIWTADGNNEEAALEIGHKLRDALRLGRNNSLQYQLHKDTMVKQGSNVKSIYTL
binds	Phosphoglycerate kinase (PgK) (enzyme, UniProt Q01604 1-415) MAFNKLSIENLDLAGKRVLMRVDFNVPIKEGKITSNQRIVAALDSIKLALSKKAKSVVLMSHLGRPDGNKNIKYTLAPVAAELKTLLGQDVIFLSDCVGSEVEAACKDPAPGSVILLENVRFYVEEEGKGLDASGGKVKADPAKVKEFRASLAKLGDVYVNDAFGTAHRAHSSMMGDGFEQRAAGLLLNKELKYFSQALDKPPNPFLAILGGAKVADKIQLIENLLDKVNEMIIGGGMAFTFLKVLNNMKIGGSLFDEEGSKIVEKLVEKAKKNNVQLHLPVDFVCGDKFAENAAVSEATVEAGIPDGHMGLDVGPKTRELFAAPIARAKLIVWNGPPGVFEFPNFANGTKSIMDGVVAATKNGTVSIIGGGDTASCCAKWNTEALVSHVSTGGGASLELLEGKTLPGVAALTSA
binds	Bicaudal-C (BicC) (protein, UniProt Q24009 1-905) MLSCASFNKLMYPSAADVAKPPMVGLEVEAGSIGSLSSLHALPSTTSVGSGAPSETQSEISSVDSDWSDIRAIAMKLGVQNPDDLHTERFKVDRQKLEQLIKAESSIEGMNGAEYFFHDIMNTTDTYVSWPCRLKIGAKSKKDPHVRIVGKVDQVQRAKERILSSLDSRGTRVIMKMDVSYTDHSYIIGRGGNNIKRIMDDTHTHIHFPDSNRSNPTEKSNQVSLCGSLEGVERARALVRLSTPLLISFEMPVMGPNKPQPDHETPYIKMIETKFNVQVIFSTRPKLHTSLVLVKGSEKESAQVRDATQLLINFACESIASQILVNVQMEISPQHHEIVKGKNNVNLLSIMERTQTKIIFPDLSDMNVKPLKKSQVTISGRIDDVYLARQQLLGNLPVALIFDFPDNHNDASEIMSLNTKYGVYITLRQKQRQSTLAIVVKGVEKFIDKIYEARQEILRLATPFVKPEIPDYYFMPKDKDLNLAYRTQLTALLAGYVDSPKTPSLLPPSLAGQLTPYANNNHLLLNANGLATPTGVCAPTQKYMQLHNSFQQAQNRSMVAGGQSNNGNYLQVPGAVAPPLKPPTVSPRNSCSQNTSGYQSFSSSTTSLEQSYPPYAQLPGTVSSTSSSTAGSQNRAHYSPDSTYGSEGGGVGGGGGGGARLGRRLSDGVLLGLSNSNGGGGNSGGAHLLPGSAESYRSLHYDLGGNKHSGHRAFDFDMKRALGYKAMERTPVAGELRTPTTAWMGMGLSSTSPAPAPLENGENGAAGGGASSGWRLPPGLGSPYGLSATTGLLDATPVNRRMQLAKHKDIQTLLTSLGLEHYIKIFVLNEIDLEVFTTLTEENLMELGIAAFGARKKLLTAIHTLLANEAACSTMPSSSSSQNSSSPRFSGSAAPGAERRPSNQW
binds	Cup (Cup) (protein, UniProt Q9VMA3 1-1117) MQMAEAEQENGAGALKIATNAGATDRPAHQQLPLPVEDQQDEVLTPAEKGKFEYPPPPPPPTPVQAPLATKATALNASQEHDDDEANSEKWEDPCAPPPPPPLPTSAFLATGLGYLKLPAFKLKDALEKAITKLEANKRTLKASPESSRSIKNKNVVALEMLPRRSNPETIGDGSMLASTSTAVMLQTKKPAVIVEMERRCKIINLLAKQNQILESISGEAIPMHGPSKHLHEDEGLTLQVLSARASTPYTQPSSMLSCTAVSCDLEHDSPRKQVASKEAVPEQQSSQVQQKRPPSTGIHKPGSLRAPKAVRPTTAPVVSSKPVKSYTRSRLMDIRNGMFNALMHRSKESFVMPRIATCDDIELEGRLRRMNIWRTSDGTRFRTRSTTANLNMNNNNNNECMPAFFKNKNKPNLISDESIIQSQPPQPQTEFQDPAIVNQRRIGSGRLNHSKWGYNDEDYHSYHNGKSQHMEEVNSKNSKNMTVLQFFDNGEISSQPQRRPNTPVMGMSINRSENDTLHSNESSEDLSRANENYVKRVMSGFLVVSKPKSRDVEDRHHRRYRNQNEEPEWFSCGPTSRLDTIELCGFDEDEEKMLKEGNKNHGLGETERETSKQKMDHKYKWTHAEPMGRSKYMPKHDTNNNHNVENMNNVMATEHQQQKEEKRPGSGRSFQFDKFNQSQQNYESSSYVNHQQPPQTQPQQMQQQSNTNTNNSKFMSFFANEGNSSSSSLNEFFKQAINQGHGNNPEQPKSLGHIGQMPSVDQLEAKWRRNSLNNVGETANKQTDNFQKLIGSLSSAKPQSQAVGYDAISNFIMQQQQYQQQQQKQHLIIQQQQQHTAFLASLQLKAILGRADTQLLLLRLTKGEISKHGLLVQLANPRLTDMDREAITAVLQFTNTQQQQQQHKQQLDMLSSTVIASQLQNLHNLAIVQQTLAARQQPQHNPQTQAPHQLSQEDLQAHANVIMRNAVMKRKIEEQTSKLINGGAKHQAQQQYLNRGQQRQARPDANSNALLHALISGGGNNHASGYPMNGQPQKHHSNLRFGDNQNFQSFESNQPHFATQYKQQYQQSQQQHPHQQPQQLNSLHQNNAGAVNSFNKAQMQAQSAISMLPNSGDEFH
binds	6-phosphofructokinase (PfK) (enzyme, UniProt P52034 1-788) MNSEINQRFLARGSQKDKGLAVFTSGGDSQGMNAAVRACVRMAIYLGCKVYFIREGYQGMVDGGDCIQEANWASVSSIIHRGGTIIGSARCQDFRERQGRLKAANNLIQRGITNLVVIGGDGSLTGANLFRQEWSSLLDELVKNKTITTEQQEKFNVLHIVGLVGSIDNDFCGTDMTIGTDTALHRIIEAIDAISSTAYSHQRTFIMEVMGRHCGYLALVGGLACEADFIFIPEMPPKVDWPDRLCSQLAQERSAGQRLNIVIVAEGAMDREGHPITAEDVKKVIDERLKHDARITVLGHVQRGGNPSAFDRILACRMGAEATLALMEATKDSVPVVISLDGNQAVRVPLMECVERTQAVAKAMAEKRWADAVKLRGRSFERNLETYKMLTRLKPPKENFDADGKGIEGYRLAVMHIGAPACGMNAAVRSFVRNAIYRGDVVYGINDGVEGLIAGNVRELGWSDVSGWVGQGGAYLGTKRTLPEGKFKEIAARLKEFKIQGLLIIGGFESYHAAGQIADQRDNYPQFCIPIVVIPSTISNNVPGTEFSLGCDTGLNEITEICDRIRQSAQGTKRRVFVIETMGGYCGYLATLAGLAGGADAAYIYEEKFSIKDLQQDVYHMASKMAEGVSRGLILRNEKASENYSTDFIYRLYSEEGKGLFTCRMNILGHMQQGGSPTPFDRNMGTKMAAKCVDWLAAQIKANIDANGVVNCKSPDTATLLGIVSRQYRFSPLVDLIAETNFDQRIPKKQWWLRLRPLLRILAKHDSAYEEEGMYITVEEECDTDAVA
